## Results of single-concentration screens

A: 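Growth of Mycobacterium tuberculosis over 3 days (7H9 medium with glucose and tyloxapol); the read-out is not stated. Concentration: 500 µM. The record gives no direction; compounds that gave an IC50 in retests scored well above the rest, so higher reads as more growth inhibition. About 18,000 compounds were tested under these conditions; 7.9% (about 1,400) showed 50% or more at least once.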
B: 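Whole-cell growth test on Mycobacterium tuberculosis, read after 4 days in a medium based on cholesterol and the lipid DPPC; the read-out is not stated. Compounds at 500 µM. The record gives no direction; compounds that gave an IC50 in retests scored well above the rest, so higher reads as more growth inhibition. Of about 18,000 compounds tested this way, about 900 (5%) reached 50% or more in at least one test.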

Values are the deposited “Percent Effect”, in %.
How 0% and 100% were set is not recorded. Most values in the screen are low, and negative values occur.
Compounds were drawn at random from those tested, without regard to their results.

- CCOc1ccc(C(C)=O)cc1N1C(=O)C=CC1=O : A: -0.6525%; B: 12.44%
- O=C(c1c[nH]c2ccccc12)N1CCCNCC1 : A: 8.71%; B: 0.5246%
- O=C(CO)Nc1nsc(-c2ccccc2)n1 : A: 5.339%; B: 6.793%
- OC1CCCn2ccnc21 (stereo not shown) : A: 8.582%; B: 5.46%
- O=C(CN1CCC(O)CC1)Nc1ccccc1F : A: 12.27%; B: 3.904%
- CN1CCCC(CCN)C1 (stereo not shown) : A: 2.624%; B: 0.7923%
- Cc1cc(S(=O)(=O)NC(CN)C2CC2)c(F)cc1F (stereo not shown) : A: 55.27%; B: 46.16%
- Cc1occc1-c1nnc(SC(C)C(=O)N(C)C)n1C (stereo not shown) : A: 14%; B: -2.434%
- Cc1ncccc1CNC(C(N)=O)c1ccc(F)cc1 (stereo not shown) : A: 3.965%; B: -13.71%
- Cc1cc(C(=O)Nc2ccc3c(c2)CCCN3)on1 : A: 57.29%; B: 62.15%
- CN(C)CCN(C)C[C@@H]1CN(C(=O)CO)C[C@@H]1CO : A: 1.142%; B: -7.053%
- CN(C)CC(=O)Nc1ccc(Br)cn1 : A: 30.01%; B: 28%
- COc1cccc(N2CCC(CN)C2)c1 (stereo not shown) : A: 87.08%; B: 90.94%
- CNc1cc(C(=O)N2CCCC(NC(C)=O)C2)ccn1 (stereo not shown) : A: 9.19%; B: 8.874%
- CN1C(=O)c2ccccc2NC12CCOCC2 : A: 12.63%; B: -0.2974%
- CNC(=O)C1CN(C(=O)c2ccc(Cl)c(C)c2)CCO1 (stereo not shown) : A: 10.86%; B: -2.041%
- CCC[C@H]1CN(C(=O)CN2CCCC2=O)C[C@@H]1N : A: 2.253%; B: -4.156%
- Nc1ncnc2ccc(Br)cc12 : A: -18.97%; B: -7.933%
- CNC(=O)c1nn(-c2ccc(F)cc2)c2c1CCCC2 : A: -5.516%; B: -5.03%
- Cc1nnc(SCCCNC(=O)CC2COCCN2)s1 (stereo not shown) : A: -10.53%; B: -4.818%
- NC1CCCN(c2cccc(F)c2)C1 (stereo not shown) : A: 25.25%; B: 16.63%
- N#CCc1ccc(-n2cnnn2)cc1 : A: 17.64%; B: 19.42%

Repeated from the top, 2 entries:

| compound | A | B |
|---|---|---|
| `CCOc1ccc(C(C)=O)cc1N1C(=O)C=CC1=O` | -0.6525 | 12.44 |
| `O=C(c1c[nH]c2ccccc12)N1CCCNCC1` | 8.71 | 0.5246 |

Data taken from ChEMBL document CHEMBL3988442, “University of Dundee, Small-Polar-MMV Screening Library” (2021).